{
  "source": "PubChem BioAssay AID504444",
  "about": "(National Center for Advancing Translational Sciences (NCATS), 2011)",
  "note": "Among all 360,000 compounds or so, about 7,500 (2.1%) were called active. The inconclusive results got no clear call from the source; some entries with a clear call stand among them for comparison. The call rests on the fitted dose curve; in most records, active means well fitted inhibition curve with a large enough effect; inconclusive means small, poorly fitted or top-dose-only effect, or effect the other way; inactive means flat fitted curve, though single readings scatter. Potencies beside an inconclusive call are fits to weak or partial responses and may not hold up. On the % scale 0 is the no-effect control and ±100 the full control effect; potency means the concentration at half of the fitted maximal effect.",
  "data": [
    {"assay": "Nrf2 qHTS screen for inhibitors; further: nearly all actives have a fitted effect of over 60% in size", "conditions": "A549 ARE-Fluc reporter, luciferase luminescence, 18-24 h; activity change, negative = inhibition: at 46 µM (top of the series)", "in_short": "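In this cell-based qHTS, ARE-driven firefly luciferase in A549 cells reports Nrf2 activity; the luminescent signal after BugLite lysis is the measured value, with a prior CellTiter-Fluor read for cell health.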", "values": [
      {"smiles": "COc1cc(OC)cc(-c2nnc(SCc3cccc(C(=O)O)c3)o2)c1", "Potency": "inconclusive: 0.731 µM [falling, partial curve, poor fit]"},
      {"smiles": "CCC(C(=O)Nc1cc(Cl)ccc1OC)n1nc(-c2ccccc2)ccc1=O", "note": "(stereo not given)", "Potency": "inconclusive: 32.6 µM [falling, single point]"},
      {"smiles": "CC1(C)CC2(CC(c3ccccc3F)c3cc(Cl)c(O)cc3O2)NC(=S)N1", "note": "(stereo not given)", "Potency": "inactive"},
      {"smiles": "CCc1ccc(OCc2n[nH]c(=S)n2C(C)CCCC(C)C)cc1", "note": "(stereo not given)", "Potency": "inconclusive: 29.1 µM [falling, single point]"},
      {"smiles": "Cc1ccc(Nc2c(-c3c[nH]c4ccccc34)nc3cc(C)ccn23)cc1", "Potency": "inactive"},
      {"smiles": "Cc1cccn2c(=O)c3cc(C#N)c(=N)n(CCCN4CCOCC4)c3nc12", "Potency": "inactive"},
      {"smiles": "Fc1ccc(-c2nnc(-c3ccc(Cl)cc3Cl)o2)cc1", "Potency": "inconclusive: 1.46 µM [activator, full curve, poor fit]"},
      {"smiles": "N#Cc1c(NC(=O)c2ccco2)sc2c1CCC2", "Potency": "inconclusive: 7.31 µM [activator, partial curve]"},
      {"smiles": "COc1cc(/C=N/NC(=O)c2nnn(-c3nonc3N)c2-c2cccs2)ccc1O", "Potency": "inconclusive: 25.9 µM [activator, partial curve, poor fit]"},
      {"smiles": "CC1(C)Cc2nc3sc4c(N(CCO)CCO)nnnc4c3cc2CO1", "Potency": "inconclusive: 29.1 µM [activator, partial curve, poor fit]"},
      {"smiles": "S=C(NCCc1ccc(Cl)cc1)Nc1ccc(Cl)cc1Cl", "Potency": "inconclusive: 29.1 µM [falling, single point]"},
      {"smiles": "CC(O)(CC(=O)CC(=O)c1ccccc1)c1ccccc1", "note": "(stereo not given)", "Potency": "inconclusive: 18.4 µM [falling, single point]"},
      {"smiles": "CCN(CC)CCN(C(=O)c1ccc(S(=O)(=O)N(C)C2CCCCC2)cc1)c1nc2ccc(OC)cc2s1", "Potency": "inconclusive: 0.184 µM [falling, full curve]"},
      {"smiles": "Cc1cc(-n2c(SCC(=O)NCCC3=CCCCC3)nc3n[nH]c(C)c3c2=N)ccc1Cl", "Potency": "inconclusive: 25.9 µM [falling, single point]"},
      {"smiles": "CCOC(=O)CC(NS(=O)(=O)c1ccc2[nH]c3c(c2c1)CCCC3)c1ccccc1Cl", "note": "(stereo not given)", "Potency": "inconclusive: 29.1 µM [falling, single point]"},
      {"smiles": "CCCCOc1ccc(CSc2nc(C)[nH]c2[N+](=O)[O-])cc1[N+](=O)[O-]", "Potency": "active: 14.6 µM"},
      {"smiles": "CC(C)OCCCNC(=O)c1ccc2c(c1)N(Cc1c(F)cccc1Cl)C(=O)c1ccccc1S2", "Potency": "inconclusive: 29.1 µM [falling, single point]"},
      {"smiles": "CCn1ncc(C2=NOC(C(=O)Nc3c(C)nn(Cc4ccc(F)cc4)c3C)C2)c1C", "note": "(stereo not given)", "Potency": "inconclusive: 18.4 µM [falling, partial curve, poor fit]"},
      {"smiles": "Cn1c(C=O)c(C#Cc2ccccc2)c2ccccc21", "Potency": "inconclusive: 25.9 µM [falling, single point]"},
      {"smiles": "O=C(Nc1ccc(S(=O)(=O)N2CCOCC2)cc1)c1ccc(Cl)s1", "Potency": "inconclusive: 14.6 µM [falling, single point]"},
      {"smiles": "COc1ccc(Cl)cc1NC(=S)NC(=O)c1ccco1", "Potency": "inactive"},
      {"smiles": "Cc1noc(/C=C/c2cccs2)c1S(=O)(=O)N1CCC(C(=O)Nc2ccc(F)c(Cl)c2)CC1", "Potency": "inconclusive: 29.1 µM [falling, single point]"},
      {"smiles": "COc1ccc(C(F)(F)F)cc1NC(=O)c1sc2nc(-c3cccs3)ccc2c1N", "Potency": "inactive"},
      {"smiles": "CCOC(=O)c1ccc(NC(=O)c2c(-c3c(F)cccc3Cl)noc2C)cc1", "Potency": "inactive"},
      {"smiles": "CCC(=O)N1CCc2cc(Br)cc(S(=O)(=O)N3CCC(C(=O)NCCCOC(C)C)CC3)c21", "Potency": "inactive"},
      {"smiles": "c1ccc2nc3c(nc2c1)[nH]c1ccccc13", "Potency": "inconclusive: 2.31 µM [activator, full curve]"},
      {"smiles": "O=C(c1cnn2ccccc12)N1CCc2ccccc21", "Potency": "inconclusive: 9.2 µM [activator, partial curve]"},
      {"smiles": "N#C[C@]1(S(=O)(=O)c2ccccc2)C[C@@H]2ON=C(c3cccc(Br)c3)[C@@H]2C1", "Potency": "inconclusive: 14.6 µM [falling, partial curve, poor fit]"},
      {"smiles": "Cc1nc(NC(=O)c2ccccc2)sc1Cc1ccc2c(c1)OCO2", "Potency": "inconclusive: 16.4 µM [activator, partial curve]"},
      {"smiles": "COC(=O)c1ccccc1NC(=O)c1ccc(COc2ccccc2Cl)o1", "Potency": "inconclusive: 5.17 µM [activator, single point]"},
      {"smiles": "N#C/C(=C\\c1cn(CCOc2ccccc2)c2ccccc12)C(=O)NCc1cccs1", "Potency": "inconclusive: 18.4 µM [falling, partial curve, poor fit]"},
      {"smiles": "COc1ccc(C2CC(=O)c3cc(-c4nc(-c5cccc(Cl)c5)cs4)c(=O)[nH]c3C2)cc1OC", "note": "(stereo not given)", "Potency": "inactive"},
      {"smiles": "O=C(Nc1nccs1)c1ccc2ccccc2n1", "Potency": "inconclusive: 3.66 µM [activator, full curve]"},
      {"smiles": "COc1ccc(NC(=S)NC(=O)C2CCCCC2)cc1", "Potency": "inconclusive: 2.31 µM [activator, full curve]"},
      {"smiles": "CCOc1cc(/C=C2\\C(=O)ON=C2c2ccccc2)ccc1OC", "Potency": "inactive"},
      {"smiles": "O=C(C1CC1)N1CCc2cc(Br)cc(S(=O)(=O)N3CCN(c4cccc(C(F)(F)F)c4)CC3)c21", "activity change, negative = inhibition": "inactive: -11.2% [at 9.27 µM]"},
      {"smiles": "O=C(/C=C/c1ccccc1)Nc1nnc(SCC(=O)c2ccc3ccccc3c2)s1", "Potency": "inconclusive: 29.1 µM [activator, single point]"},
      {"smiles": "COc1ccc(CNC(=O)CN2C(=O)NC(Cc3ccccc3)(c3ccccc3)C2=O)cc1OC", "note": "(stereo not given)", "Potency": "inactive"},
      {"smiles": "COc1ccccc1CCNC(=O)C(=O)NCC1OCCN1S(=O)(=O)c1ccc([N+](=O)[O-])cc1", "note": "(stereo not given)", "Potency": "inconclusive: 20.6 µM [falling, single point]"},
      {"smiles": "N#Cc1ccc(CN2CCN(C(=O)c3cc(Cl)c4c(c3)OCCO4)CC2)cc1", "Potency": "inconclusive: 18.4 µM [falling, partial curve, poor fit]"},
      {"smiles": "CCOc1ccc(S(=O)(=O)Nc2cccc(C(=O)NCC3CCCO3)c2)cc1", "note": "(stereo not given)", "Potency": "inconclusive: 14.6 µM [falling, partial curve]"},
      {"smiles": "CC(=O)N1CCc2cc(Br)cc(S(=O)(=O)N3CCN(c4cccc(C(F)(F)F)c4)CC3)c21", "activity change, negative = inhibition": "inactive: -10.8% [at 9.27 µM]"},
      {"smiles": "Cc1cc(C)c2sc(N(CCCN(C)C)C(=O)c3ccc(Br)s3)nc2c1", "Potency": "active: 14.6 µM"},
      {"smiles": "CCCCc1n[nH]c2c1/C(=N/O)CC(c1ccccc1)C2", "note": "(stereo not given)", "Potency": "inconclusive: 32.6 µM [falling, single point]"},
      {"smiles": "Cc1ccc(NC(=O)CCS(=O)(=O)c2ccccc2)cc1S(=O)(=O)N1CCOCC1", "Potency": "inconclusive: 16.4 µM [falling, single point]"},
      {"smiles": "CCOC(=O)O[C@]1(C(=O)COC(=O)CC)CC[C@H]2[C@@H]3CCC4=CC(=O)C=C[C@]4(C)[C@H]3[C@@H](O)C[C@@]21C", "Potency": "active: 0.058 µM"},
      {"smiles": "Cc1cccc(OCCCC(=O)Nc2nc3ccccc3[nH]2)c1", "Potency": "inconclusive: 14.6 µM [activator, partial curve]"},
      {"smiles": "Cc1ccc([C@H]2C(C(=O)O)=CC[C@@H](c3ccc(Cl)cc3)N2S(=O)(=O)c2ccc(C)cc2)cc1", "Potency": "inconclusive: 16.4 µM [falling, single point]"},
      {"smiles": "COc1ccc(NC(=O)Cn2c(=O)n(-c3ccc(OC)c(OC)c3)c(=O)c3ccccc32)cc1", "Potency": "inconclusive: 4.61 µM [falling, single point]"},
      {"smiles": "O=C(CCCn1c(SCc2ccccc2F)nc2ccccc2c1=O)NCC1CCCO1", "note": "(stereo not given)", "Potency": "inconclusive: 16.4 µM [falling, partial curve, poor fit]"},
      {"smiles": "CSc1ncc(Cl)c(C(=O)Nc2ccc(NC(C)=O)cc2)n1", "Potency": "inactive"},
      {"smiles": "COc1ccc(S(=O)(=O)N2CCOCC2)cc1NC(=O)Cc1ccsc1", "Potency": "inactive"},
      {"smiles": "CC(C)[C@H](NC(=O)N1CCn2c1nc1ccccc12)C(=O)NC1CCCCC1", "Potency": "active: 20.6 µM"},
      {"smiles": "O=C(Nc1ccc(F)cc1)Nc1ccc(N2CCCC2)c(S(=O)(=O)Nc2ccccc2Cl)c1", "Potency": "active: 23.1 µM"},
      {"smiles": "Cc1ccc(S(=O)(=O)C(C#N)c2nc3ccccc3nc2OC(C)C)cc1", "note": "(stereo not given)", "Potency": "inconclusive: 0.184 µM [falling, full curve, poor fit]"},
      {"smiles": "Cc1noc(C)c1CSc1ccccc1C(=O)Nc1nccs1", "Potency": "inconclusive: 5.17 µM [activator, partial curve, poor fit]"},
      {"smiles": "CCCn1c2ccccc2c2cnn(CC(=O)N(C)c3ccc(F)cc3)c(=O)c21", "Potency": "inactive"},
      {"smiles": "COc1ccc(-c2ccc(-c3noc(-c4ccco4)n3)c(OC)n2)cc1", "Potency": "inconclusive: 29.1 µM [falling, single point]"},
      {"smiles": "Cc1cc(=O)oc2cc(OCC(=O)Nc3nccs3)ccc12", "Potency": "inconclusive: 0.082 µM [activator, full curve, poor fit]"},
      {"smiles": "O=C(CSc1nnnn1C1CCCCC1)N1c2ccccc2Sc2ccccc21", "Potency": "inconclusive: 32.6 µM [falling, single point]"},
      {"smiles": "Cc1ccc(C(=O)/C=C/C(=O)c2ccc(C)cc2)cc1", "Potency": "inconclusive: 11.6 µM [activator, partial curve]"},
      {"smiles": "CC(C)C[C@H](CO)Nc1nc(Nc2cccc(Cl)c2)c2ncn(C(C)C)c2n1", "Potency": "inconclusive: 18.4 µM [falling, single point]"},
      {"smiles": "CC1CCN(S(=O)(=O)c2cn(CC(=O)Nc3cccc(C(F)(F)F)c3)c(=O)c3ccccc23)CC1", "Potency": "inconclusive: 29.1 µM [falling, single point]"},
      {"smiles": "c1ccc2oc(SCc3nc4ccccc4s3)nc2c1", "Potency": "inconclusive: 2.59 µM [activator, full curve]"},
      {"smiles": "COc1ccc(C(=O)Nc2ccc(S(=O)(=O)NC(C)(C)C)cc2)cc1[N+](=O)[O-]", "Potency": "inconclusive: 25.9 µM [falling, single point]"}
    ]}
  ]
}
